Measurements as given in PubChem BioAssay AID256 (DTP/NCI, 2004).
The list is a part of this screen's results and no random one: it gathers tests that were run many times, whatever their T/C, doses with no T/C, and many T/C values between a quarter and a half above the control. Other doses and runs of a compound stand elsewhere. T/C: endpoint of the treated group in % of that of the vehicle group. Some doses have a count of surviving animals in place of a T/C: the source holds a T/C of zero for them, seemingly a mark for toxic or unscored doses. Some doses without a T/C left all or most animals alive at the check, yet need not have been tolerated: the source hardly ever lists a survival T/C far under the control, and the zero likely stands for such cases as well. Counts of survivors are from the toxicity check (mostly the fifth day) where no day follows; animals may have died later. Schedules are NCI's codes, read here as Q, the interval in days (D) or hours (H), X, the number of doses. Some doses were run more than once; their values stand side by side, smallest first. For survival time, this PubChem deposit counts one and a half times the control or more as active, and values a quarter to a half above the control carry no call in these data; other NCI protocols may use other cut-offs. Some T/C values carry the count of animals alive at the toxicity check (mostly the fifth day); where none is given, no animal had died by that day.

Tested on: CD2F1 mice, L1210 leukemia ip, survival T/C
Experiment: NCI In Vivo Anticancer Drug Screen. Data for tumor model L1210 Leukemia (intraperitoneal) in CD2F1 (CDF1) mice
Settings: higher T/C = longer survival
In short: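 Vehicle-treated tumor-bearing mice served as controls (C) for compound-treated mice (T). Reported figure is T divided by C.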

[1] = T/C endpoint: mean survival time, dose: 400.0 mg/kg/injection, schedule: Q04DX002 (ip), vehicle: saline with Tween-80
[2] = T/C endpoint: mean survival time, dose: 400.0 mg/kg/injection, schedule: Q04DX003 (ip), vehicle: saline with Tween-80
[3] = T/C endpoint: mean survival time, dose: 200.0 mg/kg/injection, schedule: Q01DX001 (ip), vehicle: saline
[4] = T/C endpoint: mean survival time, dose: 400.0 mg/kg/injection, schedule: Q01DX001 (ip), vehicle: saline
[5] = T/C endpoint: mean survival time, dose: 400.0 mg/kg/injection, schedule: Q01DX009 (ip), vehicle: Klucel (hydroxypropylcellulose) (HPC)
[6] = T/C endpoint: mean survival time, dose: 25.0 mg/kg/injection, schedule: Q01DX009 (ip), vehicle: Klucel (hydroxypropylcellulose) (HPC)
[7] = T/C endpoint: mean survival time, dose: 50.0 mg/kg/injection, schedule: Q01DX009 (ip), vehicle: Klucel (hydroxypropylcellulose) (HPC)
[8] = T/C endpoint: mean survival time, dose: 200.0 mg/kg/injection, schedule: Q04DX003 (ip), vehicle: saline
[9] = T/C endpoint: mean survival time, dose: 400.0 mg/kg/injection, schedule: Q04DX003 (ip), vehicle: saline
[10] = T/C endpoint: mean survival time, dose: 300.0 mg/kg/injection, schedule: Q01DX001 (ip), vehicle: saline

## CC(=O)Nc1ccc(N=NN(C)C)cc1
T/C endpoint: mean survival time, dose: 18.75 mg/kg/injection, schedule: Q01DX009 (ip), vehicle: Klucel (hydroxypropylcellulose) (HPC)
  T/C: 140 [5 of 6 alive] and 142 % of control [4 of 6 alive]
T/C endpoint: mean survival time, dose: 37.5 mg/kg/injection, schedule: Q01DX009 (ip), vehicle: Klucel (hydroxypropylcellulose) (HPC)
  survivor count: 0 of 6
T/C endpoint: mean survival time, dose: 75.0 mg/kg/injection, schedule: Q01DX009 (ip), vehicle: Klucel (hydroxypropylcellulose) (HPC)
  survivor count: 0 of 6
T/C endpoint: mean survival time, dose: 150.0 mg/kg/injection, schedule: Q01DX009 (ip), vehicle: Klucel (hydroxypropylcellulose) (HPC)
  survivor count: 0 of 6
T/C endpoint: mean survival time, dose: 300.0 mg/kg/injection, schedule: Q01DX009 (ip), vehicle: Klucel (hydroxypropylcellulose) (HPC)
  survivor count: 0 of 6

## CC(C)CC(CCl)Cc1nc2ccccc2[nH]1 (centres undefined)
[1]
  survivor count: 0 of 3

## CC(C)(CCC(=O)O)c1cccc(Cl)c1
T/C endpoint: mean survival time, dose: 200.0 mg/kg/injection, schedule: Q01DX009 (ip), vehicle: saline with Tween-80
  survivor count: 0 of 3

## COc1cccc2c1C(=O)c1c(O)c3c(c(O)c1C2=O)C[C@@](O)(C(=O)COC(=O)Cc1cccc2ccccc12)C[C@@H]3OC1CC(N)C(O)C(C)O1 (some centres undefined)
T/C endpoint: mean survival time, dose: 1.0 mg/kg/injection, schedule: Q01DX009 (ip), vehicle: saline with Tween-80
  T/C: 127 % of control
T/C endpoint: mean survival time, dose: 1.25 mg/kg/injection, schedule: Q04DX003 (ip), vehicle: other
  T/C: 125 % of control
T/C endpoint: mean survival time, dose: 2.0 mg/kg/injection, schedule: Q01DX001 (ip), vehicle: other
  T/C: 129 % of control
T/C endpoint: mean survival time, dose: 2.0 mg/kg/injection, schedule: Q01DX009 (ip), vehicle: saline with Tween-80
  T/C: 132 % of control
T/C endpoint: mean survival time, dose: 2.5 mg/kg/injection, schedule: Q04DX003 (ip), vehicle: other
  T/C: 129 % of control
T/C endpoint: mean survival time, dose: 2.5 mg/kg/injection, schedule: Q04DX003 (ip), vehicle: saline with Tween-80
  T/C: 128 % of control
T/C endpoint: mean survival time, dose: 4.0 mg/kg/injection, schedule: Q01DX001 (ip), vehicle: other
  T/C: 125 % of control
T/C endpoint: mean survival time, dose: 4.0 mg/kg/injection, schedule: Q01DX009 (ip), vehicle: saline with Tween-80
  T/C: 145 % of control
T/C endpoint: mean survival time, dose: 5.0 mg/kg/injection, schedule: Q01DX001 (ip), vehicle: saline with Tween-80
  T/C: 128 % of control
T/C endpoint: mean survival time, dose: 5.0 mg/kg/injection, schedule: Q04DX003 (ip), vehicle: saline with Tween-80
  T/C: 128 % of control
T/C endpoint: mean survival time, dose: 8.0 mg/kg/injection, schedule: Q01DX001 (ip), vehicle: other
  T/C: 134 % of control
T/C endpoint: mean survival time, dose: 10.0 mg/kg/injection, schedule: Q01DX001 (ip), vehicle: saline with Tween-80
  T/C: 130 % of control
T/C endpoint: mean survival time, dose: 10.0 mg/kg/injection, schedule: Q04DX003 (ip), vehicle: other
  T/C: 125 % of control
T/C endpoint: mean survival time, dose: 16.0 mg/kg/injection, schedule: Q01DX001 (ip), vehicle: other
  T/C: 141 % of control
T/C endpoint: mean survival time, dose: 20.0 mg/kg/injection, schedule: Q01DX001 (ip), vehicle: saline with Tween-80
  T/C: 132 % of control
T/C endpoint: mean survival time, dose: 20.0 mg/kg/injection, schedule: Q04DX003 (ip), vehicle: other
  survivor count: 4 of 6
T/C endpoint: mean survival time, dose: 20.0 mg/kg/injection, schedule: Q04DX003 (ip), vehicle: saline with Tween-80
  T/C: 137 % of control
T/C endpoint: mean survival time, dose: 40.0 mg/kg/injection, schedule: Q01DX001 (ip), vehicle: saline with Tween-80
  survivor count: 2 of 10
T/C endpoint: mean survival time, dose: 40.0 mg/kg/injection, schedule: Q04DX003 (ip), vehicle: other
  survivor count: 2 of 6
T/C endpoint: mean survival time, dose: 40.0 mg/kg/injection, schedule: Q04DX003 (ip), vehicle: saline with Tween-80
  survivor count: 9 of 10

## CC(=O)OC1CCCC2=CC(=O)CCC21C (centres undefined)
[2]
  survivor count: 0 of 3

## Oc1cccc2cc3cccc(O)c3c(O)c12
T/C endpoint: mean survival time, dose: 100.0 mg/kg/injection, schedule: Q01DX001 (ip), vehicle: saline
  survivor count: 0 of 6
[3]
  survivor count: 0 of 6
[4]
  survivor count: 0 of 6

## O=[N+]([O-])c1ccc(SC2CCC(Cl)C3CCCCC23)c([N+](=O)[O-])c1 (centres undefined)
T/C endpoint: mean survival time, dose: 200.0 mg/kg/injection, schedule: Q04DX002 (ip), vehicle: saline with Tween-80
  survivor count: 3 of 3

## N=C(N)c1nn(C2OC(CO)C(O)C2O)c2nc[nH]c(=O)c12 (centres undefined)
T/C endpoint: median survival time, dose: 6.25 mg/kg/injection, schedule: Q01DX005 (ip), vehicle: Klucel + Tween-80
  T/C: 128 and 130 % of control
T/C endpoint: median survival time, dose: 12.5 mg/kg/injection, schedule: Q01DX005 (ip), vehicle: Klucel + Tween-80
  T/C: 136 and 142 % of control
T/C endpoint: median survival time, dose: 25.0 mg/kg/injection, schedule: Q01DX005 (ip), vehicle: Klucel + Tween-80
  T/C: 142 % of control
T/C endpoint: median survival time, dose: 50.0 mg/kg/injection, schedule: Q01DX005 (ip), vehicle: Klucel + Tween-80
  survivor count: 0 of 6, 4 of 6, 5 of 6
T/C endpoint: median survival time, dose: 100.0 mg/kg/injection, schedule: Q01DX005 (ip), vehicle: Klucel + Tween-80
  survivor count: 0 of 6
T/C endpoint: median survival time, dose: 200.0 mg/kg/injection, schedule: Q01DX005 (ip), vehicle: Klucel + Tween-80
  survivor count: 0 of 6

## CC12CC(C(=O)O)C3(O)CC(C)(C1)CC(C)(C2)C3 (centres undefined) (tested in a mixture with another compound)
[5]
  survivor count: 0 of 6

## O=c1[nH]c2ccccc2nc1CBr
T/C endpoint: mean survival time, dose: 25.0 mg/kg/injection, schedule: Q01DX009 (ip), vehicle: saline with Tween-80
  survivor count: 1 of 6
T/C endpoint: mean survival time, dose: 30.0 mg/kg/injection, schedule: Q01DX009 (ip), vehicle: saline with Tween-80
  survivor count: 5 of 6
T/C endpoint: mean survival time, dose: 50.0 mg/kg/injection, schedule: Q01DX009 (ip), vehicle: saline with Tween-80
  survivor count: 4 of 6

## COc1ccc(OC)c(N=C2C(=O)Nc3ccc(Br)cc32)c1
[1]
  survivor count: 3 of 3

## CC(=O)Nc1cccc(N=NN(C)C)c1
[6]
  T/C: 134 % of control [9 of 10 alive]
[7]
  T/C: 140 % of control
T/C endpoint: mean survival time, dose: 200.0 mg/kg/injection, schedule: Q01DX009 (ip), vehicle: Klucel (hydroxypropylcellulose) (HPC)
  survivor count: 0 of 6
[5]
  survivor count: 0 of 6

## C(#CC[P+](c1ccccc1)(c1ccccc1)c1ccccc1)C[P+](c1ccccc1)(c1ccccc1)c1ccccc1
[6]
  survivor count: 0 of 6
[7]
  survivor count: 0 of 6

## CON(C)C(=O)N1c2ccccc2Sc2ccccc21
[2]
  survivor count: 6 of 6

## CCN(CC)CCCC(C)N (centres undefined)
T/C endpoint: mean survival time, dose: 100.0 mg/kg/injection, schedule: Q04DX003 (ip), vehicle: saline
  survivor count: 1 of 6
[8]
  survivor count: 0 of 6

## CN1CCCC1CN1c2ccccc2Sc2ccccc21 (centres undefined)
[8]
  survivor count: 0 of 6
[9]
  survivor count: 0 of 6

## CCO/C(=C\[P+](c1ccccc1)(c1ccccc1)c1ccccc1)c1ccccc1
T/C endpoint: mean survival time, dose: 75.0 mg/kg/injection, schedule: Q01DX001 (ip), vehicle: saline
  survivor count: 0 of 6
T/C endpoint: mean survival time, dose: 150.0 mg/kg/injection, schedule: Q01DX001 (ip), vehicle: saline
  survivor count: 0 of 6
[10]
  survivor count: 0 of 6

## CC[N+]1(C)C2CCC1CC(O)C2 (centres undefined)
T/C endpoint: mean survival time, dose: 400.0 mg/kg/injection, schedule: Q04DX002 (ip), vehicle: saline
  survivor count: 0 of 3

## CC(Cc1ccccc1)NC1=NCCO1 (centres undefined)
[2]
  survivor count: 6 of 6

## Cc1ccc([Si](C)(C)c2ccccc2)cc1
[10]
  survivor count: 0 of 6

## C=CCc1cc(CNCC(O)c2ccccc2)c(O)c(OC)c1 (centres undefined)
T/C endpoint: mean survival time, dose: 100.0 mg/kg/injection, schedule: Q01DX009 (ip), vehicle: Klucel (hydroxypropylcellulose) (HPC)
  survivor count: 0 of 3

## CO[C@@]12[C@@H]3N[C@@H]3CN1C1=C(C(=O)C(NCCN)=C(C)C1=O)[C@@H]2COC(N)=O
T/C endpoint: median survival time, dose: 1.5 mg/kg/injection, schedule: Q01DX001 (ip), vehicle: water
  T/C: 125 and 133 % of control
T/C endpoint: median survival time, dose: 3.0 mg/kg/injection, schedule: Q01DX001 (ip), vehicle: water
  T/C: 138, 147, 148 % of control

## CCCCCCOS(=O)OCC(Cl)COC (centres undefined)
T/C endpoint: mean survival time, dose: 400.0 mg/kg/injection, schedule: Q01DX009 (ip), vehicle: saline with Tween-80
  survivor count: 5 of 6

## OC(C1CCCCN1)C1CC(c2ccccc2)Nc2c(Cl)cc(Cl)cc21 (centres undefined)
[8]
  survivor count: 0 of 6
[9]
  survivor count: 0 of 6

## COc1ccc2c3c1OC1C(=O)C4CC5(c6c(O)ccc(O)c64)C(C2)N(C)CCC315 (centres undefined)
T/C endpoint: mean survival time, dose: 100.0 mg/kg/injection, schedule: Q04DX003 (ip), vehicle: saline with Tween-80
  survivor count: 6 of 6

## Cc1nnn2ccccc12
[3]
  survivor count: 0 of 3
[4]
  survivor count: 0 of 3
